Record: PubChem BioAssay AID504784 (Drosophila RNAi Screening Center, 2011)
The deposit covers about 17,000 reagents; shown is a random part of those that have a named target and a result. 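Each column is one replicate's B-score; the combined score over replicates was not deposited, so single values may mislead.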 Further read-outs or replicates are left out here. No sequences are given here.

Assay: 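Fly genes whose silencing alters how much lipid cells keep in droplets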 (primary screen)
Cell system: Drosophila Kc167 embryonic cells
Reagent: long dsRNA against Drosophila genes, about 250 ng dsRNA per well
Timing: 4 days
Challenge: cells fed 400 µM oleic acid bound to BSA
Detection: 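Cells imaged and segmented; ratio of lipid droplet area to nuclear area, log-transformed, then normalised as a B-score over the screen; higher means more stored lipid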
Scale: droplet/nuclear area B-score: higher = more stored lipid (overstorage)

no.	target gene	dsRNA	droplet/nuclear area B-score, replicate 1	droplet/nuclear area B-score, replicate 2
1	CCT5	DRSC07357	-1.76	0.00881
2	dikar	DRSC09699	-0.665	-1.73
3	dikar	DRSC22261	-0.323	-0.391
4	Elba1	DRSC00276	-0.322	-1.27
5	betaNACtes1	DRSC19534	-0.0666	-0.00488
6	DIP-eta	DRSC02342	0.812	-0.0884
7	Paip2	DRSC14504	0.139	-0.416
8	Tcs4	DRSC19587	0.328	-0.478
9	Patr-1	DRSC14159	2.63	1.87
10	Dera	DRSC07207	0.0937	-0.624
11	Dera	DRSC21336	0.602	1.1
12	Ald1	DRSC14109	-0.524	-0.674
13	Rrp6	DRSC16223	0.274	0.0385
14	CG4629	DRSC00659	-0.934	-0.616
15	Ctps	DRSC09342	-3.63	-0.214
16	Ctps	DRSC10728	1.28	-0.186
17	Ctps	DRSC10729	1.36	1.69
18	CG34327	DRSC19517	1.01	-1.27
19	CG34327	DRSC22380	-0.096	-1.63
20	eIF5B	DRSC08429	-0.0424	2.38
21	eIF5B	DRSC08710	0.939	1.74
22	CG1529	DRSC20515	-0.497	-0.409
23	Acox57D-d	DRSC04561	0.124	0.484
24	CG4679	DRSC06880	2.14	0.982
25	CG11317	DRSC14299	0.13	2.71
26	SCAR	DRSC03426	-1.61	0.122
27	CG7322	DRSC20036	0.604	0.0672
28	Gycalpha99B	DRSC16690	-0.44	11.7
29	CG13123	DRSC02219	2.08	1.2
30	CG14024	DRSC00868	-0.751	-0.495
31	CG14024	DRSC02354	-0.000898	-1.49
32	CG31793	DRSC02605	-1.42	1.95
33	CG13930	DRSC08399	-1.27	0.762
34	Fer1HCH	DRSC16671	0.318	

Reformatted: results already given
Ctps [DRSC10728] — droplet/nuclear area B-score, replicate 1 = 1.28; droplet/nuclear area B-score, replicate 2 = -0.186
Ctps [DRSC10729] — droplet/nuclear area B-score, replicate 1 = 1.36; droplet/nuclear area B-score, replicate 2 = 1.69
